# The other results are listed elsewhere or left out.
# B1: PP2A1 (Arabidopsis thaliana) (protein)
# chain: MFRNQDSKYLIPVQKEAPPVTTLPMKASTVKSPHNCEAILRDADPPISLSSVNLSEQLRSGVFLKPKKQIKYWVDERNSNCFMLFAKNLSITWSDDVNYWTWFTEKESPNENVEAVGLKNVCWLDITGKFDTRNLTPGIVYEVVFKVKLEDPAYGWDTPVNLKLVLPNGKEKPQEKKVSLRELPRYKWVDVRVGEFVPEKSAAGEITFSMYEHAAGVWKKGLSLKGVAIRPKQHHHHHH
# Experiments:
# Assay in all cases: glycan array binding signal (z-score within array); higher = stronger binding
# Details in all cases: glycan notation: IUPAC condensed, linker removed
# [1] = biological target: Gal(b1-4)GlcNAc(b1-3)[GlcNAc(b1-6)]Gal(b1-4)GlcNAc
# Method in brief: (§1)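 Glycan array binding is given as a within-array Z-score, which can be read as non-binding when negative. The arrays, 3228 of them, came from the Consortium for Functional Glycomics database and were retained only where the protein sequence was available. Z-scores were averaged across arrays of the same protein sequence at different concentrations or buffers and across linkers.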
# [2] = biological target: Gal(b1-4)GlcNAc(b1-6)Gal(b1-4)GlcNAc
# Method in brief: as §1
# [3] = biological target: Gal(b1-4)GlcNAc(b1-6)Gal(b1-4)GlcNAc(b1-6)GalNAc
# Method in brief: as §1
# [4] = biological target: Gal(b1-4)GlcNAc(b1-6)GalNAc
# Method in brief: as §1
# [5] = biological target: Gal(b1-4)GlcNAc(b1-6)[Gal(b1-3)]GalNAc
# Method in brief: as §1
# Gal3S(b1-3)GalNAc = biological target: Gal3S(b1-3)GalNAc
# Method in brief: as §1
# Gal3S(b1-3)GlcNAc = biological target: Gal3S(b1-3)GlcNAc
# Method in brief: as §1
# [6] = biological target: Gal3S(b1-3)[Fuc(a1-4)]GlcNAc
# Method in brief: as §1
# Gal3S(b1-4)Glc = biological target: Gal3S(b1-4)Glc
# Method in brief: as §1
# Gal3S(b1-4)Glc6S = biological target: Gal3S(b1-4)Glc6S
# Method in brief: as §1
# Gal3S(b1-4)GlcNAc = biological target: Gal3S(b1-4)GlcNAc
# Method in brief: as §1
# Gal3S(b1-4)GlcNAc6S = biological target: Gal3S(b1-4)GlcNAc6S
# Method in brief: as §1
# [7] = biological target: Gal3S(b1-4)[Fuc(a1-3)]Glc
# Method in brief: as §1
# Gal3S4S(b1-4)GlcNAc = biological target: Gal3S4S(b1-4)GlcNAc
# Method in brief: as §1
# Gal3S6S(b1-4)GlcNAc = biological target: Gal3S6S(b1-4)GlcNAc
# Method in brief: as §1
# Gal3S6S(b1-4)GlcNAc6S = biological target: Gal3S6S(b1-4)GlcNAc6S
# Method in brief: as §1
# Gal4S(b1-4)GlcNAc = biological target: Gal4S(b1-4)GlcNAc
# Method in brief: as §1
# Gal4S6S(b1-4)GlcNAc = biological target: Gal4S6S(b1-4)GlcNAc
# Method in brief: as §1
# Gal6S(b1-4)Glc = biological target: Gal6S(b1-4)Glc
# Method in brief: as §1
# Gal6S(b1-4)Glc6S = biological target: Gal6S(b1-4)Glc6S
# Method in brief: as §1
# Gal6S(b1-4)GlcNAc = biological target: Gal6S(b1-4)GlcNAc
# Method in brief: as §1
# Gal6S(b1-4)GlcNAc6S = biological target: Gal6S(b1-4)GlcNAc6S
# Method in brief: as §1
# GalNAc(a1-3)Gal = biological target: GalNAc(a1-3)Gal
# Method in brief: as §1
# GalNAc(a1-3)GalNAc = biological target: GalNAc(a1-3)GalNAc
# Method in brief: as §1
# GalNAc(b1-3)Gal = biological target: GalNAc(b1-3)Gal
# Method in brief: as §1
# [8] = biological target: GalNAc(b1-3)Gal(a1-4)Gal(b1-4)GlcNAc
# Method in brief: as §1
# [9] = biological target: GalNAc(b1-3)Gal(a1-4)Gal(b1-4)GlcNAc(b1-3)Gal(b1-4)Glc
# Method in brief: as §1
# GalNAc(b1-3)GalNAc = biological target: GalNAc(b1-3)GalNAc
# Method in brief: as §1
# GalNAc(b1-4)GlcNAc = biological target: GalNAc(b1-4)GlcNAc
# Method in brief: as §1
# [10] = biological target: GalNAc(b1-4)GlcNAc(b1-2)Man(a1-3)[GalNAc(b1-4)GlcNAc(b1-2)Man(a1-6)]Man(b1-4)GlcNAc(b1-4)GlcNAc
# Method in brief: as §1
# Glc(a1-4)Glc = biological target: Glc(a1-4)Glc
# Method in brief: as §1
# Glc(a1-6)Glc(a1-6)Glc = biological target: Glc(a1-6)Glc(a1-6)Glc
# Method in brief: as §1
# Glc(b1-4)Glc = biological target: Glc(b1-4)Glc
# Method in brief: as §1
# Glc(b1-6)Glc = biological target: Glc(b1-6)Glc
# Method in brief: as §1
# GlcA(b1-3)Gal = biological target: GlcA(b1-3)Gal
# Method in brief: as §1
# GlcA(b1-3)GlcNAc = biological target: GlcA(b1-3)GlcNAc
# Method in brief: as §1
# GlcA(b1-6)Gal = biological target: GlcA(b1-6)Gal
# Method in brief: as §1
# [11] = biological target: GlcNAc(a1-3)Gal(b1-4)GlcNAc
# Method in brief: as §1
# [12] = biological target: GlcNAc(a1-4)Gal(b1-3)GlcNAc
# Method in brief: as §1
# [13] = biological target: GlcNAc(a1-4)Gal(b1-4)GalNAc
# Method in brief: as §1
# [14] = biological target: GlcNAc(a1-4)Gal(b1-4)GlcNAc
# Method in brief: as §1
# [15] = biological target: GlcNAc(a1-4)Gal(b1-4)GlcNAc(b1-3)Gal(b1-4)Glc
# Method in brief: as §1
# [16] = biological target: GlcNAc(a1-4)Gal(b1-4)GlcNAc(b1-3)Gal(b1-4)GlcNAc
# Method in brief: as §1
binder,measurement,setting,value
B1,glycan array binding signal (z-score),[1],-0.593
same,glycan array binding signal (z-score),[2],-0.067
same,glycan array binding signal (z-score),[3],0.051
same,glycan array binding signal (z-score),[4],-0.62
same,glycan array binding signal (z-score),[5],0.252
same,glycan array binding signal (z-score),Gal3S(b1-3)GalNAc,-0.147
same,glycan array binding signal (z-score),Gal3S(b1-3)GlcNAc,0.159
same,glycan array binding signal (z-score),[6],0.013
same,glycan array binding signal (z-score),Gal3S(b1-4)Glc,-0.49
same,glycan array binding signal (z-score),Gal3S(b1-4)Glc6S,0.405
same,glycan array binding signal (z-score),Gal3S(b1-4)GlcNAc,-0.121
same,glycan array binding signal (z-score),Gal3S(b1-4)GlcNAc6S,0.165
same,glycan array binding signal (z-score),[7],0.108
same,glycan array binding signal (z-score),Gal3S4S(b1-4)GlcNAc,0.581
same,glycan array binding signal (z-score),Gal3S6S(b1-4)GlcNAc,0.122
same,glycan array binding signal (z-score),Gal3S6S(b1-4)GlcNAc6S,0.393
same,glycan array binding signal (z-score),Gal4S(b1-4)GlcNAc,0.949
same,glycan array binding signal (z-score),Gal4S6S(b1-4)GlcNAc,0.202
same,glycan array binding signal (z-score),Gal6S(b1-4)Glc,0.059
same,glycan array binding signal (z-score),Gal6S(b1-4)Glc6S,1.26
same,glycan array binding signal (z-score),Gal6S(b1-4)GlcNAc,-0.167
same,glycan array binding signal (z-score),Gal6S(b1-4)GlcNAc6S,1.38
same,glycan array binding signal (z-score),GalNAc(a1-3)Gal,-0.615
same,glycan array binding signal (z-score),GalNAc(a1-3)GalNAc,-0.698
same,glycan array binding signal (z-score),GalNAc(b1-3)Gal,-0.293
same,glycan array binding signal (z-score),[8],0.158
same,glycan array binding signal (z-score),[9],-0.414
same,glycan array binding signal (z-score),GalNAc(b1-3)GalNAc,-0.497
same,glycan array binding signal (z-score),GalNAc(b1-4)GlcNAc,-0.629
same,glycan array binding signal (z-score),[10],0.662
same,glycan array binding signal (z-score),Glc(a1-4)Glc,-0.166
same,glycan array binding signal (z-score),Glc(a1-6)Glc(a1-6)Glc,-0.437
same,glycan array binding signal (z-score),Glc(b1-4)Glc,-0.133
same,glycan array binding signal (z-score),Glc(b1-6)Glc,-0.56
same,glycan array binding signal (z-score),GlcA(b1-3)Gal,-0.254
same,glycan array binding signal (z-score),GlcA(b1-3)GlcNAc,-0.177
same,glycan array binding signal (z-score),GlcA(b1-6)Gal,0.339
same,glycan array binding signal (z-score),[11],-0.581
same,glycan array binding signal (z-score),[12],0.337
same,glycan array binding signal (z-score),[13],1.26
same,glycan array binding signal (z-score),[14],-0.026
same,glycan array binding signal (z-score),[15],-0.212
same,glycan array binding signal (z-score),[16],0.172

# Quoted at random: 2 entries already listed
binder,measurement,setting,value
B1,glycan array binding signal (z-score),[15],-0.212
same,glycan array binding signal (z-score),[5],0.252
